Drawing on publication PMC9374335, “C11orf94/Frey is a key regulator for male fertility by controlling Izumo1 complex assembly” (Science Advances, 2022), this text covers binding for two molecules.

Experiment [1] has as its target T1, C11orf94 (endogenous, mouse testis) (mouse (endogenous in testis)) (UniProt Q8CF31).
T1 sequence: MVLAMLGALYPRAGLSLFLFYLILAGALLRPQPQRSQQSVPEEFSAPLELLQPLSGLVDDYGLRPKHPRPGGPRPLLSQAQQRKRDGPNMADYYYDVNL
Description: affinity purification with mass spectrometry; C11orf94 precipitated with anti-C11orf94 Sepharose from CHAPSO homogenates of wild-type testes; C11orf94-deficient testes as negative control; on-bead trypsin digest, nanoLC-MS/MS; three runs.

For experiment [2], the target named is T2, C11orf94 (endogenous, mouse testis) (mouse (endogenous in testis)), Q8CF31.
T2 chain: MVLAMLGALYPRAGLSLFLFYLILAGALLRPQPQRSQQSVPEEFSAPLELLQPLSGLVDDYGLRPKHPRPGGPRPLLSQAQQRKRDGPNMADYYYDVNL
The experiment is described as above. To be noted: remark: other sources report otherwise.

Results are given in words; binding and its absence hold for the method and conditions named. Binding seen in cells or lysates may run through a third protein. Here binding means that the protein was enriched with, or labelled near, the bait; the list need not be complete.

B1: SPPL2c (endogenous, mouse testis) (enzyme, UniProt A2A6C4 29-690)
chain: EYGLVRVVSKNWSKDYCVLYSSDYVNLPRDLHHAPLLSLHDGTKTPWCPDEDSFHQAQDSSPRQRPLHQTTTMVTRGNCSFYAKGWLAQDQGAQGLLIVSRARNQQCSDTISKPQDPSKPWPALTIPVAVLRYTDMLDIVSHTYGDTDVRVAMFAPLEPVTDYNMAIIFILAVGTVAAGGYWAGLMEANKLQRRQAQRGGGLGGHNQQQTVAAERSQRAWEDDDFEDAPMDFTPAMTGAVVTMSCSIMILLYFFYDCFVYVMIGIFSLGASTGLYSCLAPILCHLPLWRYQWVLPGQRVSVTWPLLLLAGLCAMVTVLWVIHRNEDHWAWLLQDTLGVAYCLFVLRRVRLPTFKNCTLFLLALLAFDVFFVFITPLFTKTGESIMVEVASGPADSSSHERLPMVLKVPRLSFSALTLCNQPFSILGFGDIVVPGFLVAYCHRFDMQVQSRQVYYMACTVAYAVGLLVTFVAMILMQMGQPALLYLVSSTLLTSLAVATCRQEFTLFWTGQGRAKIPAEPVAQPCIASAVGSKMKLEDAKDSRTTNRFEQAVDGESGDLESSTGDDMAEMVTLSEDEATSPEGHSESSEGWSDTNLDPNELPSGSPMALEAMLIPLIQPIPHPSELGHIRTQSRVHDSSLPWMGLHKRKGLKVKKSMSAQAPL
Consider B1, for which the binding result in experiment [1] is recorded as “binds”.

B2: Izumo1 (endogenous, mouse testis and sperm), Q9D9J7 22-397 (protein)
chain: CIKCDQFVTDALKTFENTYLNDHLPHDIHKNVMRMVNHEVSSFGVVTSAEDSYLGAVDENTLEQATWSFLKDLKRITDSDLKGELFIKELLWMLRHQKDIFNNLARQFQKEVLCPNKCGVMSQTLIWCLKCEKQLHICRKSLDCGERHIEVHRSEDLVLDCLLSWHRASKGLTDYSFYRVWENSSETLIAKGKEPYLTKSMVGPEDAGNYRCVLDTINQGHATVIRYDVTVLPPKHSEENQPPNIITQEEHETPVHVTPQTPPGQEPESELYPELHPELYPELIPTVAQNPEKKMKTRLLILLTLGFVVLVASIIISVLHFRKVSAKLKNASDEVKPTASGSKSDQSLSQQMGLKKASQADFNSDYSGDKSEATEN
For the molecule B2, the binding entry in experiment [2] was “binds”.
